Test results as given in PubChem BioAssay AID2685 (National Center for Advancing Translational Sciences (NCATS), 2010).
The list shows a part of the results. Further columns of the screen follow, without active or inactive calls. Most of these compounds were active or inconclusive in the main read-out, so they are no random draw. Potencies come from curve fits of mixed quality, noted in brackets.

Assay: qHTS Assay for Lipid Storage Modulators in Drosophila S3 Cells;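 as to cell number change: cells counted by Cell Tracker Red CMTPX staining in the red channel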
Settings: BODIPY lipid droplet fluorescence, 18-24 h; for cell number change: measured here: cell count max response, cells fed with added oleic acid
How it was run: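 Laser-scanning cytometry quantifies lipid droplet accumulation (500–530 nm total intensity; droplet/cell object ratio) in oleic acid-fed (400 uM added) Drosophila S3 cells treated with a concentration series. 20 uM Triacsin C defined 100% inhibition.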

[1] = measured here: cell number channel AC50, cells fed with added oleic acid
[2] = measured here: lipid fluorescence (Fed channel) AC50, cells fed with added oleic acid

| SMILES | cell number change [%] | AC50 [1] | AC50 [2] |
| --- | --- | --- | --- |
| COCCN1CCN(C(=O)c2ccc3nc(Cc4ccc(OC)c(OC)c4)oc3c2)CC1 | -36.7 | 7.31 µM [falling, partial curve, poor fit] | 5.8 µM [falling, full curve] |
| CCOC(=O)CCSc1nc(-c2ccccc2)cc(C(F)(F)F)n1 | -0.345 | 2.59 µM [rising, partial curve, poor fit] | 4.11 µM [rising, partial curve] |
| COC(=O)CSc1nnc(CNc2ccc(OC)cc2)n1C | 4.49 | 0.00517 µM [rising, full curve, poor fit] | 29.1 µM [rising, single point] |
| CCC(C)Sc1ccc([C@@H]2[C@H]3C(=O)N(CC)C(=O)[C@H]3[C@]3(C(=O)OC)CCCN23)cc1OC (some centres undefined) | -29.6 | – | 1.3 µM [falling, full curve] |
| COc1ccc(C(=O)NCC(=O)Nc2ccc(-c3ccccc3)cc2)cc1 | 8.57 | – | 0.206 µM [rising, single point] |
| COCc1nnc(NC(=O)c2cccc(NC(=O)c3ccccc3)c2)s1 | -1.08 | – | 0.0366 µM [rising, partial curve, poor fit] |
| CN(Cc1nc(-c2ccccc2)no1)C1CCOCC1 | -2.97 | – | 0.731 µM [falling, full curve, poor fit] |
| CC(OC(=O)c1ccc(O)cc1)C(=O)Nc1nc(-c2ccccc2)cs1 (centres undefined) | -35.3 | 11.6 µM [falling, partial curve, poor fit] | – |
| COc1ccc(OC)c(NC(=O)c2ccc(Cl)cc2)c1 | 14.2 | – | 0.013 µM [rising, full curve, poor fit] |
| CCC(C)[C@H](NC(=O)N1CC(=O)Nc2ccccc21)C(=O)Nc1nccs1 (some centres undefined) | – | 1.64 µM [falling, partial curve] | – |
| CC(=O)NC(CC(=O)Nc1cc(Cl)ccc1-n1cncn1)c1ccccc1 (centres undefined) | 30.5 | 2.59 µM [rising, full curve, poor fit] | – |
| COc1ccc(CCNC(=O)c2ccc(=O)[nH]c2)cc1 | -36.6 | 0.164 µM [falling, full curve, poor fit] | 0.366 µM [falling, full curve] |
| Cc1ccc(CS/C(Nc2ccccc2C)=C(\C#N)C(=O)NCc2ccco2)c(C)c1 | -22.3 | – | 29.1 µM [falling, single point] |
| Cc1ccc(CNC(=O)c2ccc3c(c2)NC(=O)C(N2CCOCC2)S3)cc1 (centres undefined) | 36.3 | 6.51 µM [rising, partial curve] | 29.1 µM [rising, single point] |
| Cc1csc(=O)n1CCC(=O)OCC(=O)Nc1ccc(C(N)=O)cc1 | 9.09 | – | – |
| CCC1(C)NC(=O)N(CC(=O)c2cc(C)n(C3CC3)c2C)C1=O (centres undefined) | -0.107 | – | 23.1 µM [rising, single point] |
| Cc1ccc2c(c1C)NC(=O)CC(c1ccccc1O)=N2 | -0.0735 | – | 6.51 µM [rising, single point] |

| SMILES | cell number change [%] | AC50 [1] | AC50 [2] |
| --- | --- | --- | --- |
| O=C(Nc1ccc(N2CCN(C(=O)c3ccco3)CC2)cc1)c1ccc(Br)cc1 | -12.6 | – | 23.1 µM [rising, partial curve] |
| CC(=O)C1C(c2ccc(F)cc2)C2C(C)=NN=C2CC1(C)O (centres undefined) | 35.9 | 29.1 µM [rising, single point] | – |
| O=C(O)/C=C/c1cn(Cc2ccccc2)nc1-c1ccc(Cl)cc1 | 6.38 | – | – |
| CCn1c(C)nc2cc(C#N)ccc21 | 171 | 14.6 µM [rising, partial curve] | 18.4 µM [rising, partial curve] |
| CC(C)(C)c1ccc(OCCCNC2CCCC2)cc1 | -21.4 | – | – |
| COc1ccc(NC(=O)C2CCN(S(=O)(=O)c3c(C)noc3C)CC2)cc1 | 18.3 | – | 0.731 µM [rising, single point] |
| Cc1ccc(CCNC(=O)Cn2ccc3cc(S(=O)(=O)N4CCCC4)ccc32)cc1 | -7.25 | – | 29.1 µM [falling, single point] |
| O=C(COC(=O)c1ccco1)Nc1ccccc1 | -26 | 0.0517 µM [falling, full curve, poor fit] | 0.0517 µM [falling, full curve, poor fit] |
| Cc1occc1C(=O)N/N=C/c1c(O)ccc2ccccc12 | 79.2 | 20.6 µM [rising, partial curve] | – |
| CCn1c(SCC(=O)Nc2nc(-c3ccccc3)cs2)nnc1-c1ccccc1O | -22 | – | 7.31 µM [falling, single point] |
| C/C(=N\NC(=O)c1cccs1)c1ccc2c(c1)OCO2 | – | – | 0.116 µM [rising, full curve, poor fit] |
| Cc1cccc(N2CCN(C(=O)c3ccc4c(c3)OCCO4)CC2)c1C | 40.6 | 13 µM [rising, partial curve, poor fit] | 29.1 µM [rising, single point] |
| O=C(Nc1ccc([N+](=O)[O-])cc1)c1cccc(S(=O)(=O)Nc2ccccn2)c1 | 48.3 | 32.6 µM [rising, single point] | 4.11 µM [falling, single point] |
| O=S(=O)(c1ccc2nc(-c3ccccc3)[nH]c2c1)N1CCN(c2ccc(Cl)cc2)CC1 | -18.6 | 0.164 µM [falling, full curve, poor fit] | 1.84 µM [falling, full curve, poor fit] |
| CC(Sc1ncc(C(F)(F)F)cc1Cl)C(=O)NCC1CCCO1 (centres undefined) | – | 0.411 µM [rising, single point] | 1.03 µM [rising, partial curve, poor fit] |
| Cc1ccc(C(=O)N/N=C2\CCSC2)cc1[N+](=O)[O-] | 32.8 | 5.17 µM [rising, partial curve] | 1.16 µM [rising, full curve, poor fit] |
| Cc1ccc2c(c1)COc1c3ccc(C(=O)NCC4CC4)cc3nn1-2 | 3.34 | – | 3.66 µM [rising, partial curve, poor fit] |

10 compounds already listed, ordered by count of non-hydrogen atoms, smallest number first.

| SMILES | cell number change [%] | AC50 [1] | AC50 [2] |
| --- | --- | --- | --- |
| CCn1c(C)nc2cc(C#N)ccc21 | 171 | 14.6 µM [rising, partial curve] | 18.4 µM [rising, partial curve] |
| O=C(COC(=O)c1ccco1)Nc1ccccc1 | -26 | 0.0517 µM [falling, full curve, poor fit] | 0.0517 µM [falling, full curve, poor fit] |
| Cc1ccc(C(=O)N/N=C2\CCSC2)cc1[N+](=O)[O-] | 32.8 | 5.17 µM [rising, partial curve] | 1.16 µM [rising, full curve, poor fit] |
| CC(C)(C)c1ccc(OCCCNC2CCCC2)cc1 | -21.4 | – | – |
| Cc1occc1C(=O)N/N=C/c1c(O)ccc2ccccc12 | 79.2 | 20.6 µM [rising, partial curve] | – |
| O=C(O)/C=C/c1cn(Cc2ccccc2)nc1-c1ccc(Cl)cc1 | 6.38 | – | – |
| Cc1cccc(N2CCN(C(=O)c3ccc4c(c3)OCCO4)CC2)c1C | 40.6 | 13 µM [rising, partial curve, poor fit] | 29.1 µM [rising, single point] |
| COc1ccc(NC(=O)C2CCN(S(=O)(=O)c3c(C)noc3C)CC2)cc1 | 18.3 | – | 0.731 µM [rising, single point] |
| O=C(Nc1ccc(N2CCN(C(=O)c3ccco3)CC2)cc1)c1ccc(Br)cc1 | -12.6 | – | 23.1 µM [rising, partial curve] |
| O=S(=O)(c1ccc2nc(-c3ccccc3)[nH]c2c1)N1CCN(c2ccc(Cl)cc2)CC1 | -18.6 | 0.164 µM [falling, full curve, poor fit] | 1.84 µM [falling, full curve, poor fit] |
